Data published in PubChem BioAssay AID588856 (National Center for Advancing Translational Sciences (NCATS), 2011).
Shown are results outside the selection of hits, which stands elsewhere. The source made the active and inactive calls. The call rests on the fitted dose curve; in most records, active means well fitted cell-killing curve with a large enough effect; inactive means no such curve, though single readings can be large or run the other way.

Test: qHTS for Inhibitors of TGF-b: Cytotox Counterscreen
Details: HepG2 CAGA-GFP viability, ATP luminescence, 18 h; at 46.1 µM (top of the series)
Text: TGF-b is a main component in the TGF-b signaling pathway which plays diverse roles in cellular and development pathways. TGF-b is mediated by transcription factors called "Smads". Although the Smad-dependent pathway is the primary canonical TGF-b signaling mode, TGF-b1 can also activate alternative signaling pathways, including those involving MAPK (ERK, JNK and p38). This interaction may mediate or enhance Smad-dependent responses, or can exert Smad-independent effects. The complexity of this signaling cascade allows the TGF-b superfamily to perform unique, overlapping or redundant functions. […] We aim to identify Smad3-small molecule antagonists using a quantitative high throughput screening (qHTS) approach. […]
Suspensions of trypsinized HEPG2 CAGA-GFP cells were dispensed into white, tissue culture-treated, solid 1536-well plates at 5uL/well (1000 cells/well final concentration) in DMEM medium supplemented with 1% FBS. […] Two uL of CellTiter Glo (Promega), a luminescence-based viability reagent, was dispensed, followed by a 10 minute room temperature incubation. The plates were then measured on a PerkinElmer ViewLux plate reader for luminescence (clear filter) using a 5 second exposure. The %Activity was determined from the corrected luminescence values. […]
Concentration-response curves were fitted to the signals arising from the resulting luminescence. […]

Compound | activity change, negative = cytotoxicity
CNC1CCc2cc(OC)c(OC)c(OC)c2-c2ccc(SC)c(=O)cc21 (stereo unspecified) | inactive: -21.8%
